Source: the supplement of paper PMC10398353
“And” between values parts separate entries of the source, which are not always exact repeats. Equal entries are not always repeated. Structures can show the parent of a compound that is named as a salt. ± gives the standard deviation of the averaged measurements. This is one part of the list. This is a noisy data set.

These compounds were tested on Salmonella enterica serovar Typhimurium ST313 D23580 (assay: normalized bacterial growth (OD600 20 h minus 0 h, interquartile-mean normalized) (fraction of plate interquartile mean); higher = more bacterial growth (less inhibition)). Settings: LPM (pH 5.8, low phosphate, low Mg2+), concentration: 10 µM, temperature: 37 °C.
For `O=P(O)(O)C(Cl)(Cl)P(=O)(O)O` [Clodronic acid], the normalized bacterial growth was 0.954. In the case of `N#C/C(=C/c1ccc(O)c(O)c1)C(=O)N1CCc2ccccc21` [Tyrphostin AG 528], the normalized bacterial growth is reported as 1.04. Compound `C[C@@]12C[C@@]3(O)O[C@@H](O1)[C@]1(COC(=O)c4ccccc4)[C@H]3C[C@@]12O[C@@H]1O[C@H](CO)[C@@H](O)[C@H](O)[C@H]1O` has a normalized bacterial growth of 0.917. Work on `CCC1=C(C)CN(C(=O)NCCc2ccc(S(=O)(=O)NC(=O)N[C@H]3CC[C@H](C)CC3)cc2)C1=O` [Glimepiride] yielded a normalized bacterial growth of 0.881. With `CC(C)C[C@H](NC(=O)[C@H]1O[C@@H]1C(=O)O)C(=O)NCCCCN=C(N)N` the normalized bacterial growth was 1.01 ± 0.015. `CC1(C)NC(=O)N(c2ccc([N+](=O)[O-])c(C(F)(F)F)c2)C1=O` [Nilutamide] showed a normalized bacterial growth of 0.487. Compound `CCCCCCc1ccc(O)cc1O` has a normalized bacterial growth of 0.969. For `COC(=O)[C@@H]1[C@H]2C[C@H]3c4[nH]c5ccccc5c4CCN3C[C@@H]2CC[C@@H]1O`, the normalized bacterial growth was 0.882 and 1.22. `COC(=O)[C@@H]1[C@H]2C[C@H]3c4[nH]c5ccccc5c4CCN3C[C@@H]2CC[C@@H]1O` [Yohimbine hydrochloride] was tested, and the normalized bacterial growth was 1.34. `C=C(C)[C@@H]1CC=C(C(=O)O)CC1` was tested, and the normalized bacterial growth was 1.22 and 1.26. Work on `C=C(C)[C@@H]1CC=C(C(=O)O)CC1` [(-)-Perillic acid] yielded a normalized bacterial growth of 1.41. `C[C@]12C=CC(=O)C=C1CC[C@@H]1[C@@H]2[C@@H](O)C[C@@]2(C)[C@H]1CC[C@]2(O)C(=O)COC(=O)CCC(=O)O` gave a normalized bacterial growth of 1.09. For `Oc1c2ccccc2c2c3c(cccc13)N=N2`, the normalized bacterial growth was 0.873. Work on `COc1ccc2cc([C@@H](C)C(=O)O)ccc2c1` [(R) -Naproxen sodium salt] yielded a normalized bacterial growth of 1.19. `COC(=O)C[C@H]1C(C)(C)C(=O)[C@@H]2CC3=C4CC(=O)O[C@@H](c5ccoc5)[C@]4(C)CC[C@@H]3[C@@]1(C)C2=O` was tested, and the normalized bacterial growth was 0.876. `COc1ccc(C(=O)CC(=O)O)c2c1C=CC(C)(C)O2` was tested, and the normalized bacterial growth was 1.19. In the case of `CC(C)=CCC[C@](C)(O)C1CC=C(C)CC1` (stereo partly specified), the normalized bacterial growth is reported as 1.1. With `CC(=O)OCC(=O)[C@@]1(O)CC[C@H]2[C@@H]3C[C@H](C)C4=CC(=O)C=C[C@]4(C)[C@H]3[C@@H](O)C[C@@]21C` [6alpha-METHYLPREDNISOLONE ACETATE] the normalized bacterial growth was 0.703. For `CCOC(=O)C1=C[C@]2(CC)CCCN3CCc4c(n1c1ccccc41)[C@@H]32`, the normalized bacterial growth was 0.899. For `CCOC(=O)C1=C[C@]2(CC)CCCN3CCc4c(n1c1ccccc41)[C@@H]32` [Vinpocetine], the normalized bacterial growth was 0.802. In the case of `CC1CN(S(=O)(=O)c2cccc3cnccc23)CCN1` (stereo unspecified), the normalized bacterial growth is reported as 0.679. `COc1ccc(C2CC(=O)c3c(O)cc(O)cc3O2)cc1O` (stereo unspecified) was tested, and the normalized bacterial growth was 0.995. Compound `COc1cnc(NS(=O)(=O)c2ccc(N)cc2)nc1` has a normalized bacterial growth of 1.02. Compound `O=C(O)CCC(=O)Nc1ccc(S(=O)(=O)Nc2nccs2)cc1` has a normalized bacterial growth of 1.47. Work on `Cc1cccc(CN2CCN(C(c3ccccc3)c3ccc(Cl)cc3)CC2)c1` (stereo unspecified) yielded a normalized bacterial growth of 0.977. Work on `CC1CNCCN1S(=O)(=O)c1cccc2cnccc12` (stereo unspecified) yielded a normalized bacterial growth of 0.96. Compound `CNCCC(Oc1ccccc1OC)c1ccccc1` (stereo unspecified) [Nisoxetine hydrochloride] has a normalized bacterial growth of 0.896. For `COc1cc(CCC(C)=O)ccc1O`, the normalized bacterial growth was 1.24. `CCCCCCCC/C=C\CCCCCCCC(=O)NCCc1ccc(O)c(O)c1` [N-Oleoyldopamine] showed a normalized bacterial growth of 1.21. For `CN(C)[C@@H]1C(O)=C(C(N)=O)C(=O)[C@@]2(O)C(O)=C3C(=O)c4c(O)ccc(Cl)c4[C@@](C)(O)[C@H]3C[C@@H]12`, the normalized bacterial growth was 0.11. With `CN(C)[C@@H]1C(O)=C(C(N)=O)C(=O)[C@@]2(O)C(O)=C3C(=O)c4c(O)ccc(Cl)c4[C@@](C)(O)[C@H]3C[C@@H]12` [Chlortetracycline hydrochloride] the normalized bacterial growth was 0.157. For `O=C1OC2(c3ccc(O)cc3Oc3cc(O)ccc32)c2ccccc21`, the normalized bacterial growth was 0.655. `CC(=O)N(CC(C)C(=O)O)c1c(I)cc(I)c(N)c1I` (stereo unspecified) [Iocetamic acid] was tested, and the normalized bacterial growth was 1.15. Compound `CC(=O)OCC1=C(C(=O)O)N2C(=O)[C@@H](NC(=O)CSc3ccncc3)[C@H]2SC1` [Cephapirin sodium] has a normalized bacterial growth of 1.29. Compound `C[C@]12CC[C@@H]3c4ccc(O)cc4CC[C@H]3[C@@H]1CCC2=O` has a normalized bacterial growth of 0.792. With `C[C@]12CC[C@@H]3c4ccc(O)cc4CC[C@H]3[C@@H]1CCC2=O` [Estrone] the normalized bacterial growth was 0.92. `COC1=C2C[C@@H](C)C[C@H](OC)[C@H](O)[C@@H](C)/C=C(\C)[C@H](OC(N)=O)[C@@H](OC)/C=C\C=C(/C)C(=O)NC(=CC1=O)C2=O` gave a normalized bacterial growth of 0.85. `NC(=O)NC(=O)Cc1ccccc1` showed a normalized bacterial growth of 1.09. `COc1cc(C)c(C(=O)Oc2cc(C)c(C(=O)O)c(O)c2C)c(O)c1C=O` was tested, and the normalized bacterial growth was 0.79. With `c1ccc2[nH]c(-c3cscn3)nc2c1` the normalized bacterial growth was 0.834. `OC[C@@H](O)[C@@H](O[C@@H]1O[C@H](CO)[C@H](O)[C@H](O)[C@H]1O)[C@H](O)[C@@H](O)CO` showed a normalized bacterial growth of 0.826. For `CN1[C@@H](CC(=O)c2ccccc2)CCC[C@H]1C[C@H](O)c1ccccc1`, the normalized bacterial growth was 0.953 and 1. `CN1[C@@H](CC(=O)c2ccccc2)CCC[C@H]1C[C@H](O)c1ccccc1` [alpha-Lobeline hydrochloride] showed a normalized bacterial growth of 0.721. `CSc1nc(N)c2ncn([C@@H]3O[C@H](COP(=O)(O)OP(=O)(O)OP(=O)(O)O)[C@H](O)C3O)c2n1` (stereo partly specified) [2-Methylthioadenosine triphosphate tetrasodium] showed a normalized bacterial growth of 1.16. With `CC(=O)C(C)=O` ["2,3-Butanedione"] the normalized bacterial growth was 0.976. For `O=c1c2cc(O)c(O)cc2oc2cc(O)c([C@@H]3O[C@H](CO)[C@@H](O)[C@H](O)[C@H]3O)c(O)c12`, the normalized bacterial growth was 0.913. In the case of `COc1ccc(-c2cc(=O)c3c(O)cc(O[C@@H]4O[C@H](CO[C@@H]5O[C@@H](C)[C@H](O)[C@@H](O)[C@H]5O)[C@@H](O)[C@H](O)[C@H]4O)cc3o2)cc1O`, the normalized bacterial growth is reported as 1.127 ± 0.0052. In the case of `COC(=O)C[C@H]1C(C)(C)[C@@H](O)[C@@H]2CC3=C4CC(O)O[C@@H](c5ccoc5)[C@]4(C)CCC3[C@@]1(C)C2=O` (stereo partly drawn) ["3,16-DIDEOXYMEXICANOLIDE-3beta-DIOL"], the normalized bacterial growth is reported as 0.914. Work on `Cc1cccc2c3c(ccc12)C1=C(C(=O)C3=O)[C@@H](C)CO1` yielded a normalized bacterial growth of 1.38. In the case of `CN(C)CCCO[C@@H]1[C@H]2OC(C)(C)O[C@H]2O[C@@H]1[C@H](O)CO`, the normalized bacterial growth is reported as 0.968. With `CN(C)CCCO[C@@H]1[C@H]2OC(C)(C)O[C@H]2O[C@@H]1[C@H](O)CO` [Amiprilose hydrochloride] the normalized bacterial growth was 0.975 ± 0.092.
